In the supplement of paper PMC10849652:
The other results are listed elsewhere or left out.

By UniProt entry, the sequences of proteins in these tests, tags left out. Where a name states a change or a piece, a line headed by the entry shows the natural chain unless it says otherwise.
UniProt Q8N5M4: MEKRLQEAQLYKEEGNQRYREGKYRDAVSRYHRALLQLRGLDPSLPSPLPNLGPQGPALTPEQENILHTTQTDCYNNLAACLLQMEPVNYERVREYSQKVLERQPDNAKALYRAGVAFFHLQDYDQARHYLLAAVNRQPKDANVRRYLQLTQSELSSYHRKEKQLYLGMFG
UniProt P83876: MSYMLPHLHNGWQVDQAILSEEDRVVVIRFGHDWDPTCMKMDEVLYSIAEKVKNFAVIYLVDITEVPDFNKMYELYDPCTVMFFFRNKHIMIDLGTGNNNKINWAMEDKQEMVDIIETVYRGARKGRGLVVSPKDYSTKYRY
UniProt P49459, whole entry, looked up: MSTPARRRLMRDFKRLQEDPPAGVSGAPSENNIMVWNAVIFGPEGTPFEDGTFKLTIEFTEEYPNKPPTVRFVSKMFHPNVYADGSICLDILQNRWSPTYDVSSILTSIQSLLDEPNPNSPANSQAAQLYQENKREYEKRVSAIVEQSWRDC
UniProt Q9H832: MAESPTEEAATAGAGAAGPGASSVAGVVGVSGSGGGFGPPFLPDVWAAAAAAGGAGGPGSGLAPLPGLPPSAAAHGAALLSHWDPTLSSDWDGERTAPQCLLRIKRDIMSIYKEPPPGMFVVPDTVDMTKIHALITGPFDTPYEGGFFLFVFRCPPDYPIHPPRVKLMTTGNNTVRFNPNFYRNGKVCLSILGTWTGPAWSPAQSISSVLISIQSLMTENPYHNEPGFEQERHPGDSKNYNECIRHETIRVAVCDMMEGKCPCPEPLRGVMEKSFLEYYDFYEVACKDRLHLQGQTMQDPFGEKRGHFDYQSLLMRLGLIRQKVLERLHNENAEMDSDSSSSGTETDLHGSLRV
UniProt P61077: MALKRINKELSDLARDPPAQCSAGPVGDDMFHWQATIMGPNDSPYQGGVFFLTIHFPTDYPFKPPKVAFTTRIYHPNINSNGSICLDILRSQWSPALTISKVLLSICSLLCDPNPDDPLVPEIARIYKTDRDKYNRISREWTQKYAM
UniProt Q14166: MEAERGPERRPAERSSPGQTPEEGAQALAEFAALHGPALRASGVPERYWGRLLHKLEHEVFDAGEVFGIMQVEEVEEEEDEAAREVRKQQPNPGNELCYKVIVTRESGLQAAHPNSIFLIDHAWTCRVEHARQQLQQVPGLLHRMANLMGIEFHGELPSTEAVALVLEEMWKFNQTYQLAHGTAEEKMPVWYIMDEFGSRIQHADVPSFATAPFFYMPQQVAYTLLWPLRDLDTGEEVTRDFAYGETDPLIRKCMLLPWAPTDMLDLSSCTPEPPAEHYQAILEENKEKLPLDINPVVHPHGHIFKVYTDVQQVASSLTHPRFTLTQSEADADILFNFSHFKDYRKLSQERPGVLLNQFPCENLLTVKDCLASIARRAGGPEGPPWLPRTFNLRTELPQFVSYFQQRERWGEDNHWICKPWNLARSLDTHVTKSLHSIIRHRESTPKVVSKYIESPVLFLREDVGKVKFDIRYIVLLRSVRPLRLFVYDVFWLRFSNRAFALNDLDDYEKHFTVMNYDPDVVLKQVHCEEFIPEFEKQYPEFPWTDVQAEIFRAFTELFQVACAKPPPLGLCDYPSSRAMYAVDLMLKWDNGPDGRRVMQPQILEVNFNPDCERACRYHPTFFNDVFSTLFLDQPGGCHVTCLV
UniProt P30536, whole entry, looked up: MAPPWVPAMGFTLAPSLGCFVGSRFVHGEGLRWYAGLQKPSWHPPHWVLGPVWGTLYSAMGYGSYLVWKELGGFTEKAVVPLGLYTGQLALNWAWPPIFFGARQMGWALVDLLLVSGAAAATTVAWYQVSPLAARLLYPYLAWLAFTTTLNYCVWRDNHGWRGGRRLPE
UniProt Q7Z6J9: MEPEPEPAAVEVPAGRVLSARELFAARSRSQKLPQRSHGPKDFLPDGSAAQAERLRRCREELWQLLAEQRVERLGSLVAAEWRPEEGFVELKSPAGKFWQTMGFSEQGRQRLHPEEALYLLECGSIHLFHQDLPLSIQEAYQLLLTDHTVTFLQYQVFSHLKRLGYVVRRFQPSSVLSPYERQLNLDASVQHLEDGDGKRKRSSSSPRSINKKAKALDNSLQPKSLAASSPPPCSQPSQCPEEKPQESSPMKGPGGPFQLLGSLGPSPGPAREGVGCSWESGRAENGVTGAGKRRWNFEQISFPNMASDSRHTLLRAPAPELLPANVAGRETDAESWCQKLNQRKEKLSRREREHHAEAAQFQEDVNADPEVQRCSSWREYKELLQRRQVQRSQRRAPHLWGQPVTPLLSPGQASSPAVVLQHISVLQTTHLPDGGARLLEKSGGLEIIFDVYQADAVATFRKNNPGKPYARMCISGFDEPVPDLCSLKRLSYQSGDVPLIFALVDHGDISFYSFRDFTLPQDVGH
UniProt Q6DKK2: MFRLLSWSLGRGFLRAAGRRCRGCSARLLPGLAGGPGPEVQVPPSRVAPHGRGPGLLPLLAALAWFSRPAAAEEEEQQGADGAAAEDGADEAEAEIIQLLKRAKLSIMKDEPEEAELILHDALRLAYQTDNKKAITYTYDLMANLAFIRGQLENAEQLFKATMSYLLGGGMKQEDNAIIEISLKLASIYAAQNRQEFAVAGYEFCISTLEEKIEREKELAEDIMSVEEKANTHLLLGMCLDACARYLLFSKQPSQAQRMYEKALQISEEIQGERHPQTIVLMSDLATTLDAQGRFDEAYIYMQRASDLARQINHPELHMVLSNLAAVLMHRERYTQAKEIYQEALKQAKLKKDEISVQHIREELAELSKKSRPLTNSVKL
UniProt Q8NBS9: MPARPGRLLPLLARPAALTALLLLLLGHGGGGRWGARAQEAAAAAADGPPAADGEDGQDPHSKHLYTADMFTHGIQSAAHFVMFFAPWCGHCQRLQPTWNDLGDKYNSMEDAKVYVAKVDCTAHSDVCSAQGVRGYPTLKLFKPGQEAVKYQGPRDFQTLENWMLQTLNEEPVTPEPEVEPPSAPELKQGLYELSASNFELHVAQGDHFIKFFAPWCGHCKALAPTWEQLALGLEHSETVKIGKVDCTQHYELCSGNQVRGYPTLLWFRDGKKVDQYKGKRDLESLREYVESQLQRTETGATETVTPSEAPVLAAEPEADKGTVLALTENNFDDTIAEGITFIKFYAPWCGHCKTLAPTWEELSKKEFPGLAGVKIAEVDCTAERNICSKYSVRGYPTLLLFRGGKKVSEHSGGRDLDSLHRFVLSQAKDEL
UniProt Q9BQE3, whole entry, looked up: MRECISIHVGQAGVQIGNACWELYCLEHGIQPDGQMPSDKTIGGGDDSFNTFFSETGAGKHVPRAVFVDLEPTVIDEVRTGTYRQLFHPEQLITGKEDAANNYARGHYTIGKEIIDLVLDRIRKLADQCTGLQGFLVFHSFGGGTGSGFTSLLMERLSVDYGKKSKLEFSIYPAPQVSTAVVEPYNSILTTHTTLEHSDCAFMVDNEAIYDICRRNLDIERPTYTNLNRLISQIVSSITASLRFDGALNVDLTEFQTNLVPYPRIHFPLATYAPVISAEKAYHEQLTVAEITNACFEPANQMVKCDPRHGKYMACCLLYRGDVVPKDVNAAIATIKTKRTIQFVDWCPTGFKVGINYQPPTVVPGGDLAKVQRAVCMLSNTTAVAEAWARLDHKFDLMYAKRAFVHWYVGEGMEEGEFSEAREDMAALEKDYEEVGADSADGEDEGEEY
UniProt Q9H4B7, whole entry, looked up: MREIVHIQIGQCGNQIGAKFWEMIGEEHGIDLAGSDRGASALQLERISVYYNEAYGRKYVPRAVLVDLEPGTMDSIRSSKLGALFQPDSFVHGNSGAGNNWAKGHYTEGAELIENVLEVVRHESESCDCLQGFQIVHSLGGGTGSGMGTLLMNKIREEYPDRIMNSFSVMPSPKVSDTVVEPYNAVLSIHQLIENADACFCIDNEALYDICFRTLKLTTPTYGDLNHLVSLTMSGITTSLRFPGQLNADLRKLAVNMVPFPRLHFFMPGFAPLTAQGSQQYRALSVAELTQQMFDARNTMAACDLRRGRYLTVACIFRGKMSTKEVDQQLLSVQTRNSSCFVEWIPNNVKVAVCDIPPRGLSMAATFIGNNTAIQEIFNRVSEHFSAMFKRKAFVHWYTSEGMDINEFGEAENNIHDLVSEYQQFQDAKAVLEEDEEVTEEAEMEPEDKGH
UniProt Q99598: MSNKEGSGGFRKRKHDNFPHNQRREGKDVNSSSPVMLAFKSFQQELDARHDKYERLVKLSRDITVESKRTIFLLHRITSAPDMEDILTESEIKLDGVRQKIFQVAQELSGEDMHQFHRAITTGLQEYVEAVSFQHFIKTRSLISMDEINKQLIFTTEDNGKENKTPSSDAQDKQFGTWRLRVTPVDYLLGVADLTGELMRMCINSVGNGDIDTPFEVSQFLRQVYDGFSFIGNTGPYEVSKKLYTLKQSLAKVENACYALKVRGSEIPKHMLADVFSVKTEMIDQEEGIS
UniProt Q2NL82: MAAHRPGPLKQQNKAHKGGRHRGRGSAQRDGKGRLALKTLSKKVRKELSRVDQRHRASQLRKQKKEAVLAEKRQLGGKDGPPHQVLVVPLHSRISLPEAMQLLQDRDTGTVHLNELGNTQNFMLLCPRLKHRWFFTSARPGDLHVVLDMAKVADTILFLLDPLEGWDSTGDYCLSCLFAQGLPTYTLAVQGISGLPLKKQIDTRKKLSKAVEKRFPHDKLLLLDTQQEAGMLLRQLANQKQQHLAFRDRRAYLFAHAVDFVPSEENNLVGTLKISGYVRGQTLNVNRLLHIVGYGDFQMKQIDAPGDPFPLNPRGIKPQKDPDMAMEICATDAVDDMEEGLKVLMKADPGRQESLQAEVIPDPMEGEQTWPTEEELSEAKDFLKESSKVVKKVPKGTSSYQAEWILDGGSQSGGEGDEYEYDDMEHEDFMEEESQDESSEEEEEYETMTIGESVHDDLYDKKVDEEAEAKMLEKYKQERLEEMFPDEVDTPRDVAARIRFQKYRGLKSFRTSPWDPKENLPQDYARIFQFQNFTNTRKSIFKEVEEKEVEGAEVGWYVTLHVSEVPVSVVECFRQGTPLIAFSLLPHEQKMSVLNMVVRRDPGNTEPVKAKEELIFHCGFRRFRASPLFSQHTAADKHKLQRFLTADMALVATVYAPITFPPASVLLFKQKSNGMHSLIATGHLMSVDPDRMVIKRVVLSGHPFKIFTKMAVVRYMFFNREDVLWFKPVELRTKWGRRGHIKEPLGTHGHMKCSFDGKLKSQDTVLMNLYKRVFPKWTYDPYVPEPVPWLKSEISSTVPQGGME
UniProt O14530: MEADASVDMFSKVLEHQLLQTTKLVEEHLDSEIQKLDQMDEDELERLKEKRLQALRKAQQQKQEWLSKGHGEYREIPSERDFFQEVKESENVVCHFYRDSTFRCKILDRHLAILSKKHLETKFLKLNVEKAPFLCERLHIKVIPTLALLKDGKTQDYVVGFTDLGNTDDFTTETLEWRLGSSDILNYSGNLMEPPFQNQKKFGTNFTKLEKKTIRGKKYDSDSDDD
UniProt Q96CW5, whole entry, looked up: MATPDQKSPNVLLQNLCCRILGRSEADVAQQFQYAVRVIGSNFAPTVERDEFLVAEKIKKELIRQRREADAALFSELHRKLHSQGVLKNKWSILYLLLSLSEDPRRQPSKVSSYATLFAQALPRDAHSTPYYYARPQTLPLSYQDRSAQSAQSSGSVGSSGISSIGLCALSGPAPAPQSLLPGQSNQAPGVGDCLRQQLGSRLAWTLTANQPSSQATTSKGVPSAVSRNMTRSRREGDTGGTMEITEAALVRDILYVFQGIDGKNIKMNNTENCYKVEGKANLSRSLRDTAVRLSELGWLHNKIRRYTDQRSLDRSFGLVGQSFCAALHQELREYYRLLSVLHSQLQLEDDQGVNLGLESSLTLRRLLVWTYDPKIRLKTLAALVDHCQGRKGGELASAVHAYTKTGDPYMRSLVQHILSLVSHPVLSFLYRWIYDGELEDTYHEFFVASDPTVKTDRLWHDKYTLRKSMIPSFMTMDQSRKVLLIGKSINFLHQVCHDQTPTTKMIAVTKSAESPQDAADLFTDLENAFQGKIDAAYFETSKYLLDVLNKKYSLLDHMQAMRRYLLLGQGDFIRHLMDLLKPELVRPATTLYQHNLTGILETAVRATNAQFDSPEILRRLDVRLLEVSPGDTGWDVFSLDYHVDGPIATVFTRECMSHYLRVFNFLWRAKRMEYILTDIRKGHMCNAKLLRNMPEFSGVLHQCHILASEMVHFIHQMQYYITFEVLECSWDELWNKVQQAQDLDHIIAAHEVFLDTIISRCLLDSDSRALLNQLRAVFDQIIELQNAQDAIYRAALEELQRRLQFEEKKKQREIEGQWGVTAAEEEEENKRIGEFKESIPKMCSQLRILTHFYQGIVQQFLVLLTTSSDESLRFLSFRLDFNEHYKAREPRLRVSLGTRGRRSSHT
UniProt P04818: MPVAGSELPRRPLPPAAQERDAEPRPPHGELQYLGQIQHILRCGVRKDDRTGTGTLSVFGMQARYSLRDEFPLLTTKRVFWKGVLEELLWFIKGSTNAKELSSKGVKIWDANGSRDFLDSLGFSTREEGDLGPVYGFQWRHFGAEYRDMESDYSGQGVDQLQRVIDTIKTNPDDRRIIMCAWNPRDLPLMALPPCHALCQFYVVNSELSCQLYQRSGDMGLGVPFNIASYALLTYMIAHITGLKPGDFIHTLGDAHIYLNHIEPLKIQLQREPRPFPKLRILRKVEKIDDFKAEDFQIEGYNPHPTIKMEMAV

Key:
Experiment in all cases: log2 fold change, soluble protein after heating vs DMSO (PISA); higher = thermal stabilisation; K562 cells, 10 uM, 30 min; active = over 0.2 and 3.5 SD of the protein, either way, in both replicates (recomputed)
[1] = compound: CS(=O)(=O)c1ccc(-c2cnc(N)c(C(=O)Nc3ccccc3)n2)cc1
How it was run: (§1)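 For each measurement, 10 μM compound was applied for 30 min to K562 cells at 2×10^6 cells/mL. Aliquots were heated for 3 min across 48°C-58°C, pooled, and extracted in PBS with 0.5% NP-40 at 4°C; the supernatant after 21,000xg for 90 min was soluble protein. This was quantified by TMTpro 16plex LC-MS/MS with channel sums equalised, and thermal stability was reported relative to control samples from duplicates, on a log2 fold-change scale.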

crizotinib = compound: C[C@@H](Oc1cc(-c2cnn(C3CCNCC3)c2)cnc1N)c1c(Cl)ccc(F)c1Cl [crizotinib]
How it was run: as §1

[2] = compound: C[C@@H]1COCCN1C2=NC(=NC(=C2)C3(CC3)S(=O)(=O)C)C4=C5C=CNC5=CC=C4
How it was run: as §1

[3] = compound: C[C@H](C1=CC=C(C=C1)C(=O)NC2=C3C=CNC3=NC=C2)N
How it was run: as §1

duvelisib = compound: C[C@H](Nc1ncnc2nc[nH]c12)c1cc2cccc(Cl)c2c(=O)n1-c1ccccc1 [duvelisib]
How it was run: as §1

gandotinib = compound: Cc1cc(Nc2cc(CN3CCOCC3)c3nc(C)c(Cc4ccc(Cl)cc4F)n3n2)n[nH]1 [gandotinib]
How it was run: as §1

tozasertib = compound: Cc1cc(Nc2cc(N3CCN(C)CC3)nc(Sc3ccc(NC(=O)C4CC4)cc3)n2)n[nH]1 [tozasertib]
How it was run: as §1

[4] = compound: Cc1cc(SCc2sc(-c3ccc(C(F)(F)F)cc3)nc2C)ccc1OCC(=O)O
How it was run: as §1

doramapimod = compound: Cc1ccc(-n2nc(C(C)(C)C)cc2NC(=O)Nc2ccc(OCCN3CCOCC3)c3ccccc23)cc1 [doramapimod]
How it was run: as §1

ispinesib = compound: Cc1ccc(C(=O)N(CCCN)[C@@H](c2nc3cc(Cl)ccc3c(=O)n2Cc2ccccc2)C(C)C)cc1 [ispinesib]
How it was run: as §1

Measured: log2 fold change

TTC9C (UniProt Q8N5M4)
inactive: [1] -0.022 | crizotinib -0.003 | [2] 0.191 | [3] 0.028 | duvelisib 0.121 | gandotinib -0.015 | tozasertib -0.037 | [4] 0.12 | doramapimod -0.06 | ispinesib -0.008

TXNL4A (UniProt P83876)
inactive: [1] 0.025 | crizotinib -0.097 | [2] -0.013 | [3] -0.012 | duvelisib -0.017 | gandotinib -0.071 | tozasertib -0.033 | [4] -0.037 | doramapimod 0.006 | ispinesib -0.031

UBA2 (UniProt Q9UBT2)
inactive: [1] 0.026 | crizotinib 0.12 | [2] 0.064 | [3] -0.113 | duvelisib 0.038 | gandotinib 0 | tozasertib 0.1 | [4] 0.023 | doramapimod -0.037 | ispinesib 0.089

TUBB4B (UniProt P68371)
inactive: [1] 0.01 | crizotinib -0.126 | [2] 0.088 | [3] -0.076 | duvelisib 0.037 | gandotinib -0.086 | tozasertib -0.046 | [4] -0.015 | doramapimod 0.011 | ispinesib 0.022

UBE2A (UniProt P49459)
inactive: [1] 0.006 | crizotinib -0.033 | [2] 0.013 | [3] -0.145 | duvelisib 0.023 | gandotinib -0.147 | tozasertib 0.054 | [4] -0.038 | doramapimod -0.149 | ispinesib 0.067

TUBG1 (UniProt P23258)
inactive: [1] 0.008 | crizotinib -0.019 | [2] 0.029 | [3] 0.08 | duvelisib 0.008 | gandotinib -0.014 | tozasertib -0.09 | [4] -0.029 | doramapimod 0.027 | ispinesib -0.018

UBE2Z (UniProt Q9H832)
inactive: [1] 0.045 | crizotinib -0.044 | [2] 0.046 | [3] -0.017 | duvelisib 0.074 | gandotinib -0.045 | tozasertib -0.025 | [4] -0.007 | doramapimod 0.007 | ispinesib -0.008

TUBB3 (UniProt Q13509)
inactive: [1] 0.021 | crizotinib -0.071 | [2] 0.032 | [3] -0.073 | duvelisib 0.004 | gandotinib 0.048 | tozasertib -0.048 | [4] 0.015 | doramapimod -0.003 | ispinesib 0.067

Retrieved one by one from above (two):
TUBB4B (UniProt P68371)
inactive: [1] 0.01 | crizotinib -0.126 | [2] 0.088 | [3] -0.076 | duvelisib 0.037 | gandotinib -0.086 | tozasertib -0.046 | [4] -0.015 | doramapimod 0.011 | ispinesib 0.022

TUBB3 (UniProt Q13509)
inactive: [1] 0.021 | crizotinib -0.071 | [2] 0.032 | [3] -0.073 | duvelisib 0.004 | gandotinib 0.048 | tozasertib -0.048 | [4] 0.015 | doramapimod -0.003 | ispinesib 0.067

The list goes on:

TUBB (UniProt P07437)
inactive: [1] 0.045 | crizotinib -0.135 | [2] 0.079 | [3] -0.008 | duvelisib 0.114 | gandotinib -0.059 | tozasertib -0.043 | [4] 0.04 | doramapimod -0.008 | ispinesib -0.026

UBE2D3 isoform 3 (UniProt P61077)
inactive: [1] 0.009 | crizotinib 0.031 | [2] 0.041 | [3] -0.032 | duvelisib -0.02 | gandotinib -0.04 | tozasertib -0.033 | [4] 0.01 | doramapimod -0.006 | ispinesib 0.024

TUBB2A (UniProt Q13885)
inactive: [1] 0.035 | crizotinib -0.139 | [2] 0.078 | [3] 0.059 | duvelisib 0.04 | gandotinib -0.029 | tozasertib -0.06 | [4] -0.012 | doramapimod 0.001 | ispinesib -0.034

TTLL12 (UniProt Q14166)
inactive: [1] 0.044 | crizotinib -0.149 | [2] -0.433 | [3] 0.431 | duvelisib -0.135 | gandotinib 0.204 | tozasertib 0.024 | [4] 0.142 | doramapimod 0.358 | ispinesib -0.361

TSPO (UniProt P30536)
inactive: [1] -0.003 | crizotinib 0.066 | [2] 0.142 | [3] -0.034 | duvelisib 0.109 | gandotinib -0.046 | tozasertib 0.003 | [4] -0.077 | doramapimod 0.007 | ispinesib 0.034

TSEN54 (UniProt Q7Z6J9)
inactive: [1] -0.117 | crizotinib -0.055 | [2] 0.094 | [3] -0.058 | duvelisib 0.077 | gandotinib -0.019 | tozasertib 0.012 | [4] 0.061 | doramapimod 0.064 | ispinesib -0.096

TTC19 (UniProt Q6DKK2)
inactive: [1] 0.015 | crizotinib -0.107 | [2] 0.036 | [3] 0.025 | duvelisib 0.062 | gandotinib -0.003 | tozasertib -0.012 | [4] 0.021 | doramapimod -0.004 | ispinesib -0.146

TWSG1 (UniProt Q9GZX9)
inactive: [1] 0.003 | crizotinib 0.01 | [2] 0 | [3] -0.031 | duvelisib 0.028 | gandotinib 0.027 | tozasertib 0.01 | [4] -0.029 | doramapimod -0.021 | ispinesib 0.104

TXNDC5 (UniProt Q8NBS9)
inactive: [1] -0.008 | crizotinib 0.069 | [2] -0.028 | [3] -0.05 | duvelisib 0.016 | gandotinib 0.048 | tozasertib 0.021 | [4] -0.027 | doramapimod -0.044 | ispinesib 0.063

TTPAL (UniProt Q9BTX7)
inactive: [1] -0.009 | crizotinib 0.073 | [2] 0.128 | [3] -0.113 | duvelisib -0.06 | gandotinib -0.073 | tozasertib -0.063 | [4] -0.138 | doramapimod -0.038 | ispinesib 0.144

TUBA1C (UniProt Q9BQE3)
inactive: [1] 0.017 | crizotinib -0.089 | [2] 0.063 | [3] -0.007 | duvelisib 0.044 | gandotinib -0.016 | tozasertib -0.057 | [4] 0.038 | doramapimod 0.025 | ispinesib 0.047

TUBB1 (UniProt Q9H4B7)
inactive: [1] 0.001 | crizotinib -0.07 | [2] 0.042 | [3] -0.086 | duvelisib 0.033 | gandotinib -0.03 | tozasertib -0.02 | [4] 0.007 | doramapimod -0.004 | ispinesib 0.114

TSNAX (UniProt Q99598)
inactive: [1] 0.006 | crizotinib 0.057 | [2] 0.04 | [3] -0.022 | duvelisib 0.013 | gandotinib 0.023 | tozasertib -0.035 | [4] -0.026 | doramapimod -0.029 | ispinesib 0.036

TSR1 (UniProt Q2NL82)
inactive: [1] -0.012 | crizotinib -0.061 | [2] -0.225 | [3] 0.334 | duvelisib -0.011 | gandotinib 0.044 | tozasertib 0.054 | [4] 0.158 | doramapimod 0.138 | ispinesib -0.139

TUBB4A (UniProt M0QYM7)
inactive: [1] 0.062 | crizotinib 0.028 | [2] 0.137 | [3] 0.486 | duvelisib 0.216 | gandotinib 0.15 | tozasertib -0.161 | [4] -0.098 | doramapimod 0.017

UBAC1 (UniProt Q9BSL1)
inactive: [1] -0.02 | crizotinib 0 | [2] 0.053 | [3] -0.144 | duvelisib 0.03 | gandotinib -0.13 | tozasertib 0.027 | [4] 0.015 | doramapimod -0.01 | ispinesib 0.018

TXNDC9 (UniProt O14530)
inactive: [1] 0.021 | crizotinib -0.027 | [2] 0.025 | [3] -0.011 | duvelisib 0.028 | gandotinib -0.018 | tozasertib 0.031 | [4] 0.04 | doramapimod 0.034 | ispinesib -0.003

TUBGCP3 (UniProt Q96CW5)
inactive: [1] -0.015 | crizotinib -0.16 | [2] 0.041 | [3] 0.353 | duvelisib -0.095 | gandotinib 0.038 | tozasertib 0 | [4] 0.011 | doramapimod 0.121 | ispinesib -0.161

TYMS (UniProt P04818)
inactive: [1] 0.034 | crizotinib -0.035 | [2] -0.003 | [3] -0.016 | duvelisib 0.012 | gandotinib 0.127 | tozasertib 0.027 | [4] 0.021 | doramapimod -0.005 | ispinesib 0.01

UBAC2 (UniProt Q8NBM4)
inactive: [1] -0.03 | crizotinib -0.069 | [2] 0.086 | [3] -0.082 | duvelisib -0.028 | gandotinib -0.059 | tozasertib 0.054 | [4] -0.092 | doramapimod -0.038 | ispinesib -0.096
